The test has as its system C57BL/6 mice, intracerebral ependymoblastoma, median survival T/C. Kind of test: NCI In Vivo Anticancer Drug Screen. Data for tumor model Ependymoblastoma (intracerebral) in C57BL/6 mice. As to conditions: T/C endpoint: median survival time, higher T/C = longer survival. The procedure:
The antitumor activity of compounds was measured in mice bearing transplantable tumors. Survival or tumor size were measured and the results are expressed as the measurement made in the treated group (T) divided by the measurement made in the vehicle treated control group (C). The tumor model used in this assay is Ependymoblastoma (intracerebral) in C57BL/6 mice

[1] abbreviates: dose: 4.0 mg/kg/injection, schedule: Q01DX005 (ip), vehicle: alcohol.
[2] abbreviates: dose: 4.0 mg/kg/injection, schedule: Q01DX005 (ip), vehicle: saline + alcohol.
Setting [3] is: dose: 32.0 mg/kg/injection, schedule: Q01DX001 (ip), vehicle: saline.
Where [4] appears, read: dose: 32.0 mg/kg/injection, schedule: Q01DX001 (oral), vehicle: saline.
[5] abbreviates: dose: 40.0 mg/kg/injection, schedule: Q01DX001 (ip), vehicle: saline with Tween-80.
Where [6] appears, read: dose: 64.0 mg/kg/injection, schedule: Q01DX001 (ip), vehicle: saline.
[7] abbreviates: dose: 64.0 mg/kg/injection, schedule: Q01DX001 (oral), vehicle: saline.
Setting [8] is: dose: 80.0 mg/kg/injection, schedule: Q01DX001 (ip), vehicle: saline with Tween-80.
Where [9] appears, read: dose: 128.0 mg/kg/injection, schedule: Q01DX001 (oral), vehicle: saline.

The list is a part of this screen's results and no random one: it gathers tests that were run many times, whatever their T/C, doses with no T/C, and many T/C values between a quarter and a half above the control. Other doses and runs of a compound stand elsewhere. T/C: endpoint of the treated group in % of that of the vehicle group. Some doses have a count of surviving animals in place of a T/C: the source files T/C as zero there, which appears to mark a toxic dose or a test without result, not a measured value. Some doses without a T/C left all or most animals alive at the check, yet need not have been tolerated: the source hardly ever lists a survival T/C far under the control, and the zero likely stands for such cases as well. Counts of survivors are from the toxicity check (mostly the fifth day) where no day follows; animals may have died later. Schedule codes are those of the source, taken here to give the interval after Q, in days (D) or hours (H), and the number of doses after X. Some entries were tested several times; their values stand side by side, smallest first. Where survival is the endpoint, this PubChem deposit counts one and a half times the control or more as active, and values a quarter to a half above the control carry no call in these data; other NCI protocols may use other cut-offs. Some T/C values are followed by the survivors on the day toxicity was checked, most often the fifth; where none is given, no animal had died by that day. Signs of the kind (2×) give the number of equal values in this list. Some schedules carry Z or #; the key to these is not given.

With `O=NN(CCCl)C(=O)NCCCl`, the T/C is, setting by setting: (dose: 0.25 mg/kg/injection, schedule: Q03HX032 (ip), vehicle: saline) 125 % of control; (dose: 0.5 mg/kg/injection, schedule: Q03HX008 (ip), vehicle: saline) 136 % of control; (dose: 0.5 mg/kg/injection, schedule: Q03HX032 (ip), vehicle: saline) 132 % of control; (dose: 1.0 mg/kg/injection, schedule: Q03HX032 (ip), vehicle: saline) 134 and 147 % of control; (dose: 2.0 mg/kg/injection, schedule: Q01DX005 (ip), vehicle: Klucel (hydroxypropylcellulose) (HPC)) 101, 106 [9 of 10 alive], 108, 110 (2×), 115, 119, 142, 177 % of control; (dose: 2.0 mg/kg/injection, schedule: Q01DX005 (ip), vehicle: saline + alcohol) 95, 102, 103, 118 % of control (2×). For the same compound, the T/C (dose: 2.5 mg/kg/injection, schedule: Q01DX001 (ip), vehicle: saline with Tween-80) is 89 [1 of 10 alive], 94 [3 of 10 alive], 101 [5 of 10 alive], 108, 112, 113, 114, 118, 123 % of control; the T/C (dose: 4.0 mg/kg/injection, schedule: Q01DX001 (ip), vehicle: saline) was 106, 108, 110 [survivors not given], 113, 115 [survivors not given], 117, 119, 121 [survivors not given], 125 [survivors not given], 126 % of control; the T/C (dose: 4.0 mg/kg/injection, schedule: Q01DX005 (ip), vehicle: Klucel (hydroxypropylcellulose) (HPC)) is 111 (2×), 113, 128 [9 of 10 alive], 132 [9 of 10 alive], 135 [9 of 10 alive], 140, 142, 157 % of control; the T/C under setting [1] was 134 % of control; the T/C under setting [2] is on record as 111, 126, 140, 144, 147 % of control; the T/C (dose: 4.0 mg/kg/injection, schedule: Q01DX005 (ip), vehicle: saline with Tween-80) is 127 % of control [8 of 10 alive]. In addition, the T/C reads like this: (dose: 4.0 mg/kg/injection, schedule: Q## X006 (ip), vehicle: saline with Tween-80) 145 % of control; (dose: 5.0 mg/kg/injection, schedule: Q01DX001 (ip), vehicle: saline with Tween-80) 89 [1 of 10 alive], 94 [4 of 10 alive], 110 [6 of 10 alive], 112, 113, 119, 124, 132, 143 % of control; (dose: 7.5 mg/kg/injection, schedule: Q01DX001 (ip), vehicle: saline with Tween-80) 134 % of control [5 of 6 alive]; (dose: 8.0 mg/kg/injection, schedule: Q01DX001 (ip), vehicle: saline) 93, 103 [survivors not given], 113 [survivors not given], 114, 121 [survivors not given], 127, 131 [survivors not given], 140 (2×), 146 % of control; (dose: 8.0 mg/kg/injection, schedule: Q## X006 (ip), vehicle: saline with Tween-80) 125 % of control; (dose: 10.0 mg/kg/injection, schedule: Q01DX001 (ip), vehicle: saline with Tween-80) 94 [3 of 10 alive], 98 [3 of 10 alive], 100 [4 of 10 alive], 103 [5 of 10 alive], 126, 132, 133 [9 of 10 alive], 134, 147, 162 % of control. The T/C reads like this: (dose: 10.0 mg/kg/injection, schedule: Q01DX001 (oral), vehicle: saline with Tween-80) 143 % of control [9 of 10 alive]; (dose: 16.0 mg/kg/injection, schedule: Q01DX001 (ip), vehicle: saline) 109 [survivors not given], 139 [9 of 10 alive], 142, 147 [survivors not given], 165, 173, 178 [survivors not given], 184, 192 [survivors not given], 203 % of control; (dose: 16.0 mg/kg/injection, schedule: Q01DX001 (oral), vehicle: saline) 106 [7 of 10 alive], 116, 142, 176 % of control; (dose: 16.0 mg/kg/injection, schedule: Q04DX004 (ip), vehicle: saline) 135 [9 of 10 alive] and 142 % of control; (dose: 20.0 mg/kg/injection, schedule: Q01DX001 (ip), vehicle: saline with Tween-80) 94 [3 of 10 alive] (2×), 104 [5 of 10 alive], 124, 159, 189 [6 of 10 alive], 194, 214, 236, 239 % of control; under setting [3], 105 [survivors not given], 117 [survivors not given], 120, 169 [survivors not given], 189 [survivors not given], 244, 267 % of control. In addition, the T/C is 125, 169, 196 % of control under setting [4]; 136 % of control (dose: 32.0 mg/kg/injection, schedule: Q04DX004 (ip), vehicle: saline); 87, 93 [2 of 10 alive], 97 [3 of 10 alive], 101 [4 of 10 alive], 133 % of control [9 of 10 alive] under setting [5]; 89 [survivors not given], 98 [survivors not given], 99 [survivors not given], 111 % of control [survivors not given] under setting [6]; 131 [9 of 10 alive] and 255 % of control under setting [7]; 92 [2 of 10 alive] and 98 % of control [2 of 10 alive] under setting [8]. Moreover, the T/C under setting [9] was 185 % of control [9 of 10 alive]. Besides, the survivor count is, setting by setting: under setting [1], 10 of 10; (dose: 32.0 mg/kg/injection, schedule: Q01DX001 (ip), vehicle: saline with Tween-80) 2 of 10; under setting [3], 4 of 10, 6 of 10, 10 of 10; under setting [4], 3 of 10; under setting [5], 5 of 10, 9 of 10, 10 of 10; (dose: 60.0 mg/kg/injection, schedule: Q01DX001 (ip), vehicle: saline with Tween-80) 3 of 6. Besides, the survivor count reads like this: (dose: 64.0 mg/kg/injection, schedule: Q01DX001 (ip), vehicle: other) 9 of 10; under setting [6], 0 of 10, 1 of 10, 2 of 10, 10 of 10; under setting [7], 1 of 10 and 2 of 10; (dose: 64.0 mg/kg/injection, schedule: Q04DX004 (ip), vehicle: saline) 10 of 10; (dose: 64.0 mg/kg/injection, schedule: Q08DX002 (ip), vehicle: saline) 10 of 10; under setting [8], 2 of 10, 4 of 10, 5 of 10, 9 of 10. Besides, the survivor count is 0 of 10, 1 of 10, 9 of 10 under setting [9]; 10 of 10 (dose: 128.0 mg/kg/injection, schedule: Q04DX004 (ip), vehicle: saline); 9 of 10 and 10 of 10 (dose: 128.0 mg/kg/injection, schedule: Q08DX002 (ip), vehicle: saline); 0 of 10, 1 of 10, 9 of 10, 10 of 10 (dose: 256.0 mg/kg/injection, schedule: Q01DX001 (oral), vehicle: saline); 8 of 10 and 9 of 10 (dose: 256.0 mg/kg/injection, schedule: Q04DX004 (ip), vehicle: saline); 0 of 10 (dose: 512.0 mg/kg/injection, schedule: Q01DX001 (oral), vehicle: saline with Tween-80).

For the compound `NC(CSC(c1ccccc1)(c1ccccc1)c1ccccc1)C(=O)O` (stereo not drawn), the survivor count reads like this: (dose: 128.0 mg/kg/injection, schedule: Q01DX005 (ip), vehicle: Klucel (hydroxypropylcellulose) (HPC)) 9 of 10; (dose: 256.0 mg/kg/injection, schedule: Q01DX005 (ip), vehicle: Klucel (hydroxypropylcellulose) (HPC)) 3 of 10.

Regarding `COC1C(CO)OC(n2cnc3c(=S)nc(N)[nH]c32)C1O` (stereo not drawn), the survivor count runs as follows: (dose: 50.0 mg/kg/injection, schedule: Q01DX005 (ip), vehicle: Klucel (hydroxypropylcellulose) (HPC)) 9 of 10; (dose: 200.0 mg/kg/injection, schedule: Q01DX005 (ip), vehicle: Klucel (hydroxypropylcellulose) (HPC)) 7 of 10; (dose: 400.0 mg/kg/injection, schedule: Q01DX005 (ip), vehicle: Klucel (hydroxypropylcellulose) (HPC)) 7 of 10.

`NC(=O)N(CCCl)N=O`: where the note is “dose: 1.0 mg/kg/injection, schedule: Q01DX005 (ip), vehicle: saline + alcohol”, the T/C was 144 % of control. In addition, the survivor count under setting [2] is on record as 10 of 10; the survivor count (dose: 8.0 mg/kg/injection, schedule: Q01DX005 (ip), vehicle: saline + alcohol) is on record as 10 of 10; the survivor count (dose: 16.0 mg/kg/injection, schedule: Q01DX005 (ip), vehicle: saline + alcohol) is given as 5 of 10.

The record behind these values is PubChem BioAssay AID222 (DTP/NCI, 2004).
